Data reported in PubChem BioAssay AID2685 (National Center for Advancing Translational Sciences (NCATS), 2010).
In all, about 320,000 compounds went through this assay and about 2,100 (0.66%) were called active. This list was built around the results that the source calls inconclusive (neither active nor inactive); the mix of calls is not that of the screen. The call rests on the fitted dose curve; in most records, active means well fitted inhibition curve with a large enough effect in the signal ratio, with a control signal flat (not every such curve was filed as active); inconclusive means small, poorly fitted or top-dose-only effect, or effect the other way, or a change in a side signal; inactive means flat fitted curve, though single readings scatter; the % refers to the signal ratio. Potencies of inconclusive entries are doubtful fits and often do not repeat.

Assay: qHTS Assay for Lipid Storage Modulators in Drosophila S3 Cells
Conditions: BODIPY lipid droplet fluorescence, 18-24 h, cells fed with added oleic acid; lipid storage change, negative = inhibition: at 46.1 µM (top of the series) unless noted
In short: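 Drosophila S3 cells got compounds at several concentrations plus oleic acid (400 uM solution). Laser-scanning cytometry with 488 nm excitation read lipid droplets at 500-530 nm and cells at 575-640 nm. Percent activity was relative to 20 uM Triacsin C.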
On the % scale 0 is the no-effect control and ±100 the full control effect; potency means the concentration at half of the fitted maximal effect.

Lipid storage change, negative = inhibition, inconclusive:
COc1cc(C(=O)NC(=S)Nc2ccc3c(c2)C(=O)N(C)C3=O)cc(OC)c1OC -2.76%
CC(C)c1cc(=O)n2[nH]c(N)nc2n1 -23.7%
c1ccc2c(Nc3nc(N4CCOCC4)c4ccccc4n3)cccc2c1 -13.3%
O=C(Nc1ccc(S(=O)(=O)Nc2nccs2)cc1)c1cnc(Cl)c(Cl)c1 30.4%
CC(C)C(C)NC(=O)COc1nc2ccccc2nc1N(C)C1CCCCC1 (stereo not given) 24.1%
O=C(COC(=O)c1cc(F)c(F)cc1Cl)NC1CC1 -21.5%
CC1(C)Oc2ccc(C(=O)NC3CCCC3)cc2N(CC(=O)N2CCOCC2)C1=O 11.9%
CCOC(=O)n1c(=O)n(Cc2ccc(F)cc2)c2ccccc21 38.4%
CC1CCN(c2c(NCc3ccc(C(=O)NCc4ccccc4)cc3)c(=O)c2=O)CC1 -18.3%
CCn1cc([N+](=O)[O-])c(C(=O)N2N=C(c3ccc4ccccc4c3)CC2c2ccccc2O)n1 (stereo not given) -73.3%
COc1cc(/C=C2\SC(=Nc3cccnc3)NC2=O)cc(OC)c1OC -26.3%
COc1ccccc1C1CCN(C(=O)c2cnn(-c3ccccc3)c2C)CC1 12.9%
CC1(C)Cc2c(sc(NC(=O)c3ccc(C(=O)c4ccccc4)cc3)c2C#N)C(C)(C)N1 -26.7%
CN(C(=O)c1cc(COc2c(F)cccc2F)on1)C1CCOC1 (stereo not given) -22.1%
COc1cccc(NC(=O)CNc2cc(S(=O)(=O)N3CCOCC3)ccc2N2CCCC2)c1 -29.7%
O=C(Cn1[nH]c(=O)c2ccccc2c1=O)OCC(=O)c1ccc(Br)cc1

A draw from above in order of molecular weight, low to high:
Lipid storage change, negative = inhibition, inconclusive:
O=C(Cn1[nH]c(=O)c2ccccc2c1=O)OCC(=O)c1ccc(Br)cc1
COc1cc(C(=O)NC(=S)Nc2ccc3c(c2)C(=O)N(C)C3=O)cc(OC)c1OC -2.76%
CC1(C)Cc2c(sc(NC(=O)c3ccc(C(=O)c4ccccc4)cc3)c2C#N)C(C)(C)N1 -26.7%

Following part.

Potency, inconclusive:
Cc1cccc(CC(=O)N2CCN=C2SCc2ccc([N+](=O)[O-])cc2)c1 9.2 µM [activator, partial curve]
CCC(=O)Nc1ccc(C(=O)Cn2nc(C(=O)O)c3ccccc3c2=O)cc1 3.66 µM [falling, partial curve, poor fit]
C#CCOCCOCCOCCNc1nc(N2CCN(C(=O)CCCCCCCCCCNC(=O)[C@H](CCCCN)n3cc(CCCC(=O)O)nn3)CC2)nc(N2CCN(C(=O)CCCCCCCCCCNC(=O)[C@@H]([C@H](C)O)n3cc(C)nn3)CC2)n1 29.1 µM [activator, single point]

Potency, active:
C=CC(C)N1C(=O)S/C(=C\c2ccc(N3CCOCC3)cc2C)C1=O (stereo not given) 4.11 µM
